Test results as given in US20190263931A1 (IMMUNOMETABOLISM DEVELOPMENT, published 2019).
No constants are given. Whether binding was seen depends on the method and setting. Binding calls can cover weak binding; strength is not graded here.

Experiments:
[1] = molecular target: rabbit MCT1 (rabbit); assay: flow cytometry, rabbit red blood cells
[2] = molecular target: rabbit MCT1 (rabbit); assay: staining of rabbit red blood cells (FIG. 18B)
[3] = molecular target: cynomolgus MCT1 (cynomolgus monkey); assay: flow cytometry, cynomolgus PBMC (live gate), resting and stimulated
[4] = molecular target: rabbit MCT1 (rabbit); assay: flow cytometry, rabbit PBMC (live gate), resting and stimulated
[5] = molecular target: cynomolgus MCT1 (cynomolgus monkey); assay: flow cytometry, red blood cells of single cynomolgus monkeys
[6] = molecular target: rabbit MCT1 (rabbit); assay: flow cytometry on rabbit PBMCs (FIG. 12C)
[7] = molecular target: rabbit MCT1 (rabbit); assay: flow cytometry on PBMCs (FIG. 12A-D)
[8] = molecular target: cynomolgus MCT1 (cynomolgus monkey); assay: flow cytometry on PBMCs (FIG. 12A-D)
[9] = molecular target: rabbit MCT1 (rabbit); assay: staining of rabbit red blood cells with MCT1 Ab1 (FIG. 18B)
[10] = molecular target: cynomolgus MCT1 (cynomolgus monkey); assay: flow cytometry on cynomolgus PBMCs (FIG. 12B)
[11] = molecular target: cynomolgus MCT1 (cynomolgus monkey); assay: flow cytometry, purified cynomolgus red blood cells
[12] = molecular target: cynomolgus MCT1 (cynomolgus monkey); assay: staining of purified cynomolgus red blood cells (FIG. 18A)
[13] = molecular target: cynomolgus MCT1 (cynomolgus monkey); assay: staining of cynomolgus red blood cells with MCT1 Ab1 (FIG. 18A)

Measured: binding

B1: MCT1 Ab1 (antibody, V domains shown)
VH: QVQLKATGPGLVQPTQTLSITCTVSGFSLTNYHLQWVRQTPGKGLEWMGFIRSSGNTEYNSEFKSRLSISRDTSKNQVFLKMNSLKTDDTGVYYCARNSWYHGTYYSPGYYVMDAWGQGASVTVSS
VL: NIHLTQSPSLLSASVGDRVTLSCKGSQNINNYLAWFQQKFGETPKLLIYNRHNLQTGIPSRFSGSGSGTDYTLTINSLQPEDVATYFCYQYSDGYTFGAGTKLELK
notes: also called INX310; Rat Anti-MCT1 antibody
binds: all assays above
